Measurements as given in the supplement of paper PMC6411743.
± gives the standard deviation of the averaged measurements. Only a part is listed here, and it is no random draw.

Protein sequences, listed by entry. Tags and fused reporters are not part of them. Lines headed by an entry give the natural chain unless they say otherwise; changes in a name come on top.
UniProt Q8N5F7: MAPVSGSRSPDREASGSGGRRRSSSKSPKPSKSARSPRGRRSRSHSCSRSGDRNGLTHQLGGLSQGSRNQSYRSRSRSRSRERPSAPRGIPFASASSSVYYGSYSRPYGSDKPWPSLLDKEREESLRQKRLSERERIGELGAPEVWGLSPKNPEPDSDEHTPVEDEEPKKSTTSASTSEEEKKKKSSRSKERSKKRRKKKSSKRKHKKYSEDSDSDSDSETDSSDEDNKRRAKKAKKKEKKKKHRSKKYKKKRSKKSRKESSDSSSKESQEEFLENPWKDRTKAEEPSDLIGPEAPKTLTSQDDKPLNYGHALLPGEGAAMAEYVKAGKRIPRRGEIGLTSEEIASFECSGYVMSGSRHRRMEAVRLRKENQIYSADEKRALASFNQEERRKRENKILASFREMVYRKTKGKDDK
UniProt Q8IWF6: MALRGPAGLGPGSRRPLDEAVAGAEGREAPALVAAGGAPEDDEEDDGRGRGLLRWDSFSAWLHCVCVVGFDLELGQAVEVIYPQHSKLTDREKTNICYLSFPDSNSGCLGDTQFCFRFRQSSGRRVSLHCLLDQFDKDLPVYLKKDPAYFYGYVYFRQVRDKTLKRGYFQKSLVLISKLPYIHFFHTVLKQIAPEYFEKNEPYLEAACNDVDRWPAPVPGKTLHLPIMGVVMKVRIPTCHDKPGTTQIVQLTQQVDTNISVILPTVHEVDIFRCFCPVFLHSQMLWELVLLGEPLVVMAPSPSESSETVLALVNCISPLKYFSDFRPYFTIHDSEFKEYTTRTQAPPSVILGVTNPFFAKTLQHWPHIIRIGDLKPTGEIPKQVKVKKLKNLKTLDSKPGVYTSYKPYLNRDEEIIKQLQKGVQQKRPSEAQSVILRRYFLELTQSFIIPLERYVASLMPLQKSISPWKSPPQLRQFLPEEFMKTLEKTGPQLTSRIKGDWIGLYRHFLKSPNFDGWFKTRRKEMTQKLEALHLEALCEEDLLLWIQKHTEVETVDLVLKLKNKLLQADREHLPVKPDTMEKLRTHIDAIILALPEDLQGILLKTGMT
UniProt Q8NEZ4, whole entry: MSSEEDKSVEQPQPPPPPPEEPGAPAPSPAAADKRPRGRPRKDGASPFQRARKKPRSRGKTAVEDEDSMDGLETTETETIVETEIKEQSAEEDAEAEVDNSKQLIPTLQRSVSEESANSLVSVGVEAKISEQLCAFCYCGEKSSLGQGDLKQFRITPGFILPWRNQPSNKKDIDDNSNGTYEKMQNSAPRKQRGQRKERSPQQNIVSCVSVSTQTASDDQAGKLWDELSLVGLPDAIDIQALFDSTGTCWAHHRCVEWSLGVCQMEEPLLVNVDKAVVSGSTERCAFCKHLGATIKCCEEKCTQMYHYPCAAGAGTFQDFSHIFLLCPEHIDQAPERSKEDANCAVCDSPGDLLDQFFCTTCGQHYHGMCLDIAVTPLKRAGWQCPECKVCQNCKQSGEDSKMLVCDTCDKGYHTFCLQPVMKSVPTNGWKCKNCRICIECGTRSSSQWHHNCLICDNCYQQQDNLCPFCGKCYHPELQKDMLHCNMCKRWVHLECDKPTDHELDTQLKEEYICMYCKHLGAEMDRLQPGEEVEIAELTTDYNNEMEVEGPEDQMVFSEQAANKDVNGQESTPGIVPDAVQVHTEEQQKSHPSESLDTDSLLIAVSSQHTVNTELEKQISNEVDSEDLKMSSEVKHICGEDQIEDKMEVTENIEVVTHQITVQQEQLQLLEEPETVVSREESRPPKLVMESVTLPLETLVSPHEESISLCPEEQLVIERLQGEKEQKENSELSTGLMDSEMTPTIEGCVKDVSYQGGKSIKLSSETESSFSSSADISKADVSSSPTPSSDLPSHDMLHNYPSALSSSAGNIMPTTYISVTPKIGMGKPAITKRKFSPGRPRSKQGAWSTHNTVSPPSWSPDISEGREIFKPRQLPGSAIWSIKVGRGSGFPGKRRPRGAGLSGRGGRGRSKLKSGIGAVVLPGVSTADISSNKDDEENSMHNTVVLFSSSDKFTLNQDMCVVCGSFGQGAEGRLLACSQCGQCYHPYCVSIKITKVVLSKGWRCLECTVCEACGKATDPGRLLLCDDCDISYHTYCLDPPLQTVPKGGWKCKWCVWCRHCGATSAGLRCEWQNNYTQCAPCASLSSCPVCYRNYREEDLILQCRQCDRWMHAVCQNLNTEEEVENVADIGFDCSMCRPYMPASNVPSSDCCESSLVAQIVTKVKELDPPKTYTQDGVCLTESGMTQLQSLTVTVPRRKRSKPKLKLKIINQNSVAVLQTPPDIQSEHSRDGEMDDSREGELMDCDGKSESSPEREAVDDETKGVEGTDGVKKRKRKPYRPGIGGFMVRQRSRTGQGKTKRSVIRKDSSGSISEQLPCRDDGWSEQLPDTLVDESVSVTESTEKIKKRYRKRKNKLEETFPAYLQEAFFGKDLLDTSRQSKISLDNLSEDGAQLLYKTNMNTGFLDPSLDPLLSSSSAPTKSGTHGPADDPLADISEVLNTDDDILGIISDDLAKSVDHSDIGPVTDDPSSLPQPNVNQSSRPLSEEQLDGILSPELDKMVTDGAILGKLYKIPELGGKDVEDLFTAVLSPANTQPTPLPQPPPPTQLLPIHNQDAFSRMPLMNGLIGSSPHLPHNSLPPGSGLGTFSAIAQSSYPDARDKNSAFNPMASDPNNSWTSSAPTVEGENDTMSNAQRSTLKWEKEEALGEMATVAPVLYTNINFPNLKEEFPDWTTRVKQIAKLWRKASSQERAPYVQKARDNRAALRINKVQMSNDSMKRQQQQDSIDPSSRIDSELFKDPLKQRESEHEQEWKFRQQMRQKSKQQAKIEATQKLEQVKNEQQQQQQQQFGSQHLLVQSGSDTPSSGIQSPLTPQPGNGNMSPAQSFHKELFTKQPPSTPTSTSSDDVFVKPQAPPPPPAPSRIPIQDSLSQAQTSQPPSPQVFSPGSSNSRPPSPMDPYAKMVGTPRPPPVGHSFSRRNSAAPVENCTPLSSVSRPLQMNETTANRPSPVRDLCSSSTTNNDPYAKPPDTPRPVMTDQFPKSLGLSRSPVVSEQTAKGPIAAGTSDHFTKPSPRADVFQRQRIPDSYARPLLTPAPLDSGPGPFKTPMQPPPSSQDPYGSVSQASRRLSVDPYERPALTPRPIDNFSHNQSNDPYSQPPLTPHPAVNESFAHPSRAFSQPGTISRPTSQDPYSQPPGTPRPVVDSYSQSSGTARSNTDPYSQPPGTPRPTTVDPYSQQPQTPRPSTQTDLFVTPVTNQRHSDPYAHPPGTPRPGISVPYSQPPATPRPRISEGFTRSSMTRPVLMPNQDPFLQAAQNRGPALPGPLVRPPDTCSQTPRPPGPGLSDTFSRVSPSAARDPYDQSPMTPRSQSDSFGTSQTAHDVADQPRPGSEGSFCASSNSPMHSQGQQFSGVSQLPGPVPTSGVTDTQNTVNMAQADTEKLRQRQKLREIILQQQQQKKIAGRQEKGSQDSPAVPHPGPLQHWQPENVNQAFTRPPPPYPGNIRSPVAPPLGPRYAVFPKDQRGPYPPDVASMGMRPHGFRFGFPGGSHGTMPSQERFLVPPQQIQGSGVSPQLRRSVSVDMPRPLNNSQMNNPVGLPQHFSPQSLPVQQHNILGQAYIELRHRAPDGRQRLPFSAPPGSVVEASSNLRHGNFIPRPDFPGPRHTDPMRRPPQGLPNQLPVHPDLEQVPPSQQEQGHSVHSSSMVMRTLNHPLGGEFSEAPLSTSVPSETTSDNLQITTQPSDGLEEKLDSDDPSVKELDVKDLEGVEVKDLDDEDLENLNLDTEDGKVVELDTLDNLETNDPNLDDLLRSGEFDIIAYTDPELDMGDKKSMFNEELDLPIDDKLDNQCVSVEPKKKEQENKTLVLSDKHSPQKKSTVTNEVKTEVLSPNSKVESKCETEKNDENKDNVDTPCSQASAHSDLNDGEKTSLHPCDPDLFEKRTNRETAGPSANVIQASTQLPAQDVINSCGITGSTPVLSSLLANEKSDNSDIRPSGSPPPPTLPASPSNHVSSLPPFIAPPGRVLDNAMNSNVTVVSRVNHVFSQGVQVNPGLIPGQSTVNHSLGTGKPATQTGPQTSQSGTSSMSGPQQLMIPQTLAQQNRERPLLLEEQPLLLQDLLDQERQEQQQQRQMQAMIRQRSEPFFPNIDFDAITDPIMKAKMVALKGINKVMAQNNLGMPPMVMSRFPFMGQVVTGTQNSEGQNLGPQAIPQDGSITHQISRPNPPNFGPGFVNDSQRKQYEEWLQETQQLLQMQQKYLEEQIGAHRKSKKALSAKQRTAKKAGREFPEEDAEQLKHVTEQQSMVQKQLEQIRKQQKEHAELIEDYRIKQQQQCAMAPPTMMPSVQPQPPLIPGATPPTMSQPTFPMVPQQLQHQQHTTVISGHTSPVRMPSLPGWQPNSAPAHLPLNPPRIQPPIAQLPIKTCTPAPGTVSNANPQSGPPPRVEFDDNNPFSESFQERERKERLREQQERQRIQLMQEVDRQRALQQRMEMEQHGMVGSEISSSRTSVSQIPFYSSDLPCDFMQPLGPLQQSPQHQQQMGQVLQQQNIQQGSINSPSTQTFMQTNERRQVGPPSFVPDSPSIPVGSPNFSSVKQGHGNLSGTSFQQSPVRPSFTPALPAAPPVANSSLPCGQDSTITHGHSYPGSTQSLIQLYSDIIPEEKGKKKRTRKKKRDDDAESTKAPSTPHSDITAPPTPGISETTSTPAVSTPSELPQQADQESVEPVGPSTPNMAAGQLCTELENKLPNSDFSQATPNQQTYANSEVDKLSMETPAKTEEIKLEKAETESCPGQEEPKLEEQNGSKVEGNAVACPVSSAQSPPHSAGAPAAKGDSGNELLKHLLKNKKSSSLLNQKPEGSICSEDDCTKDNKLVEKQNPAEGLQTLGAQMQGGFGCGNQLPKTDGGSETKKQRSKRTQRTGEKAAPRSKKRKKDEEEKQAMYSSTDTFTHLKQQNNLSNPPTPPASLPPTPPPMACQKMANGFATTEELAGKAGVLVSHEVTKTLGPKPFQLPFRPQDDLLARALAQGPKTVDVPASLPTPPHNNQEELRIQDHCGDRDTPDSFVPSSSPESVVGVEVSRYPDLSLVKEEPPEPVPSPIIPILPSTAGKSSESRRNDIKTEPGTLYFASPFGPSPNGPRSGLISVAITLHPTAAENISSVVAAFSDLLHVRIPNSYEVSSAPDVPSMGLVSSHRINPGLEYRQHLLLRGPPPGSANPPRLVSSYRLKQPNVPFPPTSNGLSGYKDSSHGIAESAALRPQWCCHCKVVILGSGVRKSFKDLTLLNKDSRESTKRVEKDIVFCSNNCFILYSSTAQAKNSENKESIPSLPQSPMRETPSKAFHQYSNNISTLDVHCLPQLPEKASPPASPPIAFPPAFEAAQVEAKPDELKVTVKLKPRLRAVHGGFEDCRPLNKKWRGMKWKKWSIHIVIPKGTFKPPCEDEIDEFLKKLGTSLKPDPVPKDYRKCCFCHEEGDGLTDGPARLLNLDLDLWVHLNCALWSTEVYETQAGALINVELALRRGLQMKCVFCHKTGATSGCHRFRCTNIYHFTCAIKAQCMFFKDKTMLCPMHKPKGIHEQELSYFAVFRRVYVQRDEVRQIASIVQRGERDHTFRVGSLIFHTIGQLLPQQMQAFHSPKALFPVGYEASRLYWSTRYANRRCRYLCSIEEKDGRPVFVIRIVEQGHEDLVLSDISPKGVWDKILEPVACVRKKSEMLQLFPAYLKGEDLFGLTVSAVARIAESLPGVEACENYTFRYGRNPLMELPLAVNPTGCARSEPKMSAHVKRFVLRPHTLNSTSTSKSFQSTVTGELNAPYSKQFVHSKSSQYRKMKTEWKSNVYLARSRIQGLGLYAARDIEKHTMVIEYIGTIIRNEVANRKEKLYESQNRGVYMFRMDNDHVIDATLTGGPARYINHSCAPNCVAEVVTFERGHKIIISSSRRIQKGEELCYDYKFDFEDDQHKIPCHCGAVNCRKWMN
UniProt Q8N0V3: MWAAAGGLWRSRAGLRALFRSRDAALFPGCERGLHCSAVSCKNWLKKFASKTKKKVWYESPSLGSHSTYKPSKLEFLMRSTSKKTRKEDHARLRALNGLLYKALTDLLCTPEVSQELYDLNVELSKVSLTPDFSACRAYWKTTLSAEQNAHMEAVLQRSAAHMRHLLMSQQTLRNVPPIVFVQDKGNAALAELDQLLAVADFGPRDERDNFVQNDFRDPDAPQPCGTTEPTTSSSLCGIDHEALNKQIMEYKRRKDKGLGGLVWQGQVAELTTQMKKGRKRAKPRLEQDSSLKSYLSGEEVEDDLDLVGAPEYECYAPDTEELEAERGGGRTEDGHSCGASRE
UniProt Q8TAC1: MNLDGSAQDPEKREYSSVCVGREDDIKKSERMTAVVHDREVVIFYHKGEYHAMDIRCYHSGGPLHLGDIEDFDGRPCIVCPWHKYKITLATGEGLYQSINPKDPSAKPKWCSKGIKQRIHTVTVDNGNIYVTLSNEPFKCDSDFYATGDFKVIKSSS

Compound: Nc1ncnc2c1ncn2[C@@H]1O[C@H](COP(=O)(O)OP(=O)(O)OP(=O)(O)O)[C@@H](O)[C@H]1O [adenosine triphosphate]
Experiment: NP40-soluble protein abundance relative to vehicle (solubility fold change) (ratio); higher = more soluble protein in presence of ATP
Outline: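 Crude Jurkat lysate, prepared by Dounce homogenisation, was exposed to eight concentrations from 0.1 to 10 mM for 10 min at room temperature and then 3 min at 37 °C. Solubilisation used 0.8% NP40 with benzonase for 60 min at 4 °C, followed by ultracentrifugation and TMT labelling of the supernatant for LC-MS/MS. After vsn normalisation of intensities, each value is the fold change against the detergent-processed vehicle within each replicate, across three independent experiments.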

Target	NP40-soluble protein abundance (concentration: 1mM)	NP40-soluble protein abundance (concentration: 2mM)	NP40-soluble protein abundance (concentration: 4mM)	NP40-soluble protein abundance (concentration: 6mM)	NP40-soluble protein abundance (concentration: 8mM)	NP40-soluble protein abundance (concentration: 10mM)
LIX1L (UniProt Q8IVB5)	0.936 ± 0.025	0.968 ± 0.027	0.97 ± 0.019	0.972 ± 0.034	0.935 ± 0.059	0.93 ± 0.061
UniProt Q8IW35 and related entries	0.974 ± 0.027	0.979 ± 0.015	0.987 ± 0.029	0.966 ± 0.02	0.992 ± 0.038	1.02 ± 0.051
NKAP (UniProt Q8N5F7)	1.02 ± 0.08	1.05 ± 0.061	1.07 ± 0.068	1.05 ± 0.066	1.1 ± 0.062	1.11 ± 0.088
UniProt Q8IZP0-3|Q8IZP0-5|Q8IZP0-9|A0A0A0MRT6|B6VEX4 and related entries	0.933 ± 0.092	0.913 ± 0.069	0.898 ± 0.094	0.911 ± 0.098	0.888 ± 0.057	0.835 ± 0.069
C9orf40 (UniProt Q8IXQ3)	0.99 ± 0.11	0.951 ± 0.11	0.836 ± 0.055	0.848 ± 0.14	0.813 ± 0.032	0.817 ± 0.081
UniProt Q8NFH5 and related entries	1.13 ± 0.19	1.081 ± 0.0023	1.1 ± 0.054	1.11 ± 0.043	1.03 ± 0.025	1.14 ± 0.062
UniProt Q8IWF6	0.977 ± 0.059	0.973 ± 0.054	0.96 ± 0.054	0.935 ± 0.08	0.946 ± 0.09	0.974 ± 0.034
C12orf29 (UniProt Q8N999)	1.03 ± 0.07	1.01 ± 0.07	1.02 ± 0.048	1 ± 0.014	1.03 ± 0.11	1.04 ± 0.072
SCCPDH (UniProt Q8NBX0)	1.04 ± 0.064	1.01 ± 0.06	1 ± 0.054	0.98 ± 0.1	1.02 ± 0.042	0.999 ± 0.066
KLHL36 (UniProt Q8N4N3)	0.981 ± 0.034	0.9675 ± 0.0046	0.963 ± 0.077	0.954 ± 0.017	0.987 ± 0.062	0.941 ± 0.035
UniProt Q8NBJ5	0.987 ± 0.06	0.957 ± 0.036	0.958 ± 0.035	0.943 ± 0.058	0.96 ± 0.039	0.943 ± 0.025
UniProt Q8NHY2 and related entries	0.989 ± 0.08	0.947 ± 0.055	0.978 ± 0.071	0.894 ± 0.14	0.972 ± 0.088	0.992 ± 0.085
UniProt Q8NE86 and related entries	1.06 ± 0.084	1.09 ± 0.12	1.05 ± 0.094	0.99 ± 0.085	1.06 ± 0.049	1.04 ± 0.083
UniProt Q8IW41 and related entries	1.06 ± 0.087	1.07 ± 0.089	1.03 ± 0.051	0.909 ± 0.097	0.998 ± 0.022	1.03 ± 0.061
RFLNB (UniProt Q8N5W9)	0.954 ± 0.099	0.969 ± 0.076	0.991 ± 0.15	0.948 ± 0.098	0.985 ± 0.11	0.966 ± 0.033
UniProt Q8N8E3 and related entries	1.11 ± 0.051	1.09 ± 0.035	1.05 ± 0.021	1.13 ± 0.055	1.06 ± 0.046	1.06 ± 0.017
ASCC3 (UniProt Q8N3C0)	0.987 ± 0.043	0.978 ± 0.032	1.05 ± 0.048	1.07 ± 0.053	1.17 ± 0.018	1.32 ± 0.04
UniProt Q8NEZ4 and related entries	0.984 ± 0.037	0.973 ± 0.07	0.991 ± 0.018	0.958 ± 0.025	0.986 ± 0.067	1.04 ± 0.057
UniProt Q8NG31 and related entries	1.03 ± 0.021	1.015 ± 0.0095	1.02 ± 0.017	1.02 ± 0.061	1.01 ± 0.013	1.01 ± 0.033
DHX40 (UniProt Q8IX18)	1.04 ± 0.053	1.06 ± 0.018	1.06 ± 0.012	1.03 ± 0.033	1.044 ± 0.0053	1.02 ± 0.025
ZCCHC9 (UniProt Q8N567)	1.16 ± 0.029	1.25 ± 0.082	1.33 ± 0.025	1.43 ± 0.051	1.38 ± 0.08	1.37 ± 0.069
UniProt Q8N0V3	0.938 ± 0.094	1.03 ± 0.014	1.05 ± 0.086	0.983 ± 0.0019	0.924 ± 0.052	1.05 ± 0.04
UniProt Q8N983-4|B1AL05 and related entries	1.06 ± 0.25	0.93 ± 0.26	0.877 ± 0.18	0.896 ± 0.36	0.945 ± 0.31	0.748 ± 0.21
UniProt Q8TAC1 and related entries	1.03 ± 0.031	1.12 ± 0.049	1.07 ± 0.08	1.12 ± 0.076	1.04 ± 0.034	1.09 ± 0.038
SRBD1 (UniProt Q8N5C6)	1.17 ± 0.19	1.2 ± 0.017	1.29 ± 0.044	1.35 ± 0.073	1.4 ± 0.09	1.45 ± 0.057
UniProt Q8NC44	0.99 ± 0.096	0.98 ± 0.073	0.99 ± 0.057	0.955 ± 0.1	0.913 ± 0.078	0.942 ± 0.085
UniProt Q8N3X6 and related entries	0.923 ± 0.067	0.913 ± 0.098	0.979 ± 0.056	1.01 ± 0.034	0.844 ± 0.081	0.893 ± 0.089
NFATC2IP (UniProt Q8NCF5)	1.03 ± 0.087	0.894 ± 0.15	0.979 ± 0.086	0.982 ± 0.033	0.9 ± 0.068	0.89 ± 0.076
ALDH16A1 (UniProt Q8IZ83)	1.03 ± 0.069	0.993 ± 0.021	0.973 ± 0.038	0.928 ± 0.065	0.998 ± 0.09	1 ± 0.081
RPUSD2 (UniProt Q8IZ73)	1.01 ± 0.011	1.03 ± 0.028	1.07 ± 0.014	1.02 ± 0.032	1 ± 0.018	1.01 ± 0.031

Six entries from above, in CSV form.
Target,NP40-soluble protein abundance (concentration: 1mM),NP40-soluble protein abundance (concentration: 2mM),NP40-soluble protein abundance (concentration: 4mM),NP40-soluble protein abundance (concentration: 6mM),NP40-soluble protein abundance (concentration: 8mM),NP40-soluble protein abundance (concentration: 10mM)
SRBD1 (UniProt Q8N5C6),1.17 ± 0.19,1.2 ± 0.017,1.29 ± 0.044,1.35 ± 0.073,1.4 ± 0.09,1.45 ± 0.057
UniProt Q8NC44,0.99 ± 0.096,0.98 ± 0.073,0.99 ± 0.057,0.955 ± 0.1,0.913 ± 0.078,0.942 ± 0.085
UniProt Q8N3X6 and related entries,0.923 ± 0.067,0.913 ± 0.098,0.979 ± 0.056,1.01 ± 0.034,0.844 ± 0.081,0.893 ± 0.089
NFATC2IP (UniProt Q8NCF5),1.03 ± 0.087,0.894 ± 0.15,0.979 ± 0.086,0.982 ± 0.033,0.9 ± 0.068,0.89 ± 0.076
ALDH16A1 (UniProt Q8IZ83),1.03 ± 0.069,0.993 ± 0.021,0.973 ± 0.038,0.928 ± 0.065,0.998 ± 0.09,1 ± 0.081
RPUSD2 (UniProt Q8IZ73),1.01 ± 0.011,1.03 ± 0.028,1.07 ± 0.014,1.02 ± 0.032,1 ± 0.018,1.01 ± 0.031
